Experimental data reported in paper PMC13304329.
Results are given in words; binding and its absence hold for the method and conditions named. In cells and extracts the contact can be indirect. These calls come from enrichment with a bait or labelling near it, and not all partners need be listed.

By UniProt entry, the sequences of proteins in these tests, tags left out.
UniProt Q5S007: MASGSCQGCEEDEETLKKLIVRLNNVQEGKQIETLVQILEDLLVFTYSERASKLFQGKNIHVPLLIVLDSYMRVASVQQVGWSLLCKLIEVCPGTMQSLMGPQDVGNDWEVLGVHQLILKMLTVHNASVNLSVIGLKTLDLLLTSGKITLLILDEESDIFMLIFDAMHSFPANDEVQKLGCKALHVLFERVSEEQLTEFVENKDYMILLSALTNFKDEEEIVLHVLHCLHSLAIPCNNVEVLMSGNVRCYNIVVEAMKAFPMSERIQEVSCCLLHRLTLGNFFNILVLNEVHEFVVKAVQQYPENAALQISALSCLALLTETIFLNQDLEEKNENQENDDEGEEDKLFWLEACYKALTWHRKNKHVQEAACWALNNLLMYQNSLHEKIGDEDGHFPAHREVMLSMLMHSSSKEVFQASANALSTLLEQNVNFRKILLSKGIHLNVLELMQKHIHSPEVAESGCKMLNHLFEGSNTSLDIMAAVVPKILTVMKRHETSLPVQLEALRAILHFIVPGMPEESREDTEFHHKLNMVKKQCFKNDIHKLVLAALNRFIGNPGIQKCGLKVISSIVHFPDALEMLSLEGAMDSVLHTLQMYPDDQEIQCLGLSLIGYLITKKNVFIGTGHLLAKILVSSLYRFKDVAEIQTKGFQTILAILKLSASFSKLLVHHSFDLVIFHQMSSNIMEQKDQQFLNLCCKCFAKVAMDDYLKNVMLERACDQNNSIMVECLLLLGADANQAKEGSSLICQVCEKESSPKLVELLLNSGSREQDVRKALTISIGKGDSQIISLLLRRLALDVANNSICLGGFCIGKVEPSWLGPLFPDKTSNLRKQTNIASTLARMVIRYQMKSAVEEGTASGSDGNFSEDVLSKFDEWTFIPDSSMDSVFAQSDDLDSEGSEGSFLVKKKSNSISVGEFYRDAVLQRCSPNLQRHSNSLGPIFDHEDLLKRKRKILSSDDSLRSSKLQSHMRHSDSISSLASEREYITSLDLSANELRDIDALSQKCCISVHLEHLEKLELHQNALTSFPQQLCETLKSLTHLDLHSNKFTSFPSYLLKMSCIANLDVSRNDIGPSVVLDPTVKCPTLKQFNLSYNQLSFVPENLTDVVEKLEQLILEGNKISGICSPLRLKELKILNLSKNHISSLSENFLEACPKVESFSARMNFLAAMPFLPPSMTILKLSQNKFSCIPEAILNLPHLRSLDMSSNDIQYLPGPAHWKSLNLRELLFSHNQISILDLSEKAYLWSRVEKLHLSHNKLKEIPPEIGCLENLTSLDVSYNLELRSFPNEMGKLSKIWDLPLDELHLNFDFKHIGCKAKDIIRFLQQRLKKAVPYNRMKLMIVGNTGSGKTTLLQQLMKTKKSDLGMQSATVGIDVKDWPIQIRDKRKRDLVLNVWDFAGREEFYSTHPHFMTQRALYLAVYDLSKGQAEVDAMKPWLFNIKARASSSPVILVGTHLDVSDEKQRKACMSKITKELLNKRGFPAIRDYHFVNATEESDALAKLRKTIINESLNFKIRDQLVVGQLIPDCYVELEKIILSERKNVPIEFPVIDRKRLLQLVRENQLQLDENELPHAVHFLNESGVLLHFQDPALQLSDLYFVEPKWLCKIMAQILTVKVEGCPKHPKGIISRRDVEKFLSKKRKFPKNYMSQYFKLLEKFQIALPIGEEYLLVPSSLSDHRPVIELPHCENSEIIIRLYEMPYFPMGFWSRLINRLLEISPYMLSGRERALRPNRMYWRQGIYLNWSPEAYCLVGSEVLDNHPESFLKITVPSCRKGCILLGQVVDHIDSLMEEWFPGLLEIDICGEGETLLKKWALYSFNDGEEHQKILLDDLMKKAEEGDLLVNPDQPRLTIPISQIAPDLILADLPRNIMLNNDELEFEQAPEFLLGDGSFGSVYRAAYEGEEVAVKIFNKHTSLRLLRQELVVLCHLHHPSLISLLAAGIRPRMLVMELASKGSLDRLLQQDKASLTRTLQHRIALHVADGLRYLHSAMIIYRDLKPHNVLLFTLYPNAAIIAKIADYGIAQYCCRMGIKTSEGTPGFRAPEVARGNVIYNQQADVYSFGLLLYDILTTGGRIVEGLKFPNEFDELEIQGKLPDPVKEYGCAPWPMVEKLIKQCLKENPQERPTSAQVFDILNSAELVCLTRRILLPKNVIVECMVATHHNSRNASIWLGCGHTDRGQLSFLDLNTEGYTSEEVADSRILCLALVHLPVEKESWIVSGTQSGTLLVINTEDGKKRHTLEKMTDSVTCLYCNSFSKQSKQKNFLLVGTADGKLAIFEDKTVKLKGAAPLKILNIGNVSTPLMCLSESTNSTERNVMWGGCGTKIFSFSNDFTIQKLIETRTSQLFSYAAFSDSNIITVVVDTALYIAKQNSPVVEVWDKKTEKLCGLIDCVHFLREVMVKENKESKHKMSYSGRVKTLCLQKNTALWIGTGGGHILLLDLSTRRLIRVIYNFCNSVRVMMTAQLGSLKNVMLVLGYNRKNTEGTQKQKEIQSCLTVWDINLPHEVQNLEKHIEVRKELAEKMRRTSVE

Target: miniTurbo-LRRK2 (human) (UniProt Q5S007)
Assay: proximity labelling; mT-LRRK2 co-expressed with HA-RAB29 against empty pcDNA3.0 vector; biotin labelling, Strep-Tactin enrichment, LC-MSMS, LFQ with FDR-controlled t test

Binder | binding
Sodium-dependent neutral amino acid transporter B(0)AT2 (protein, UniProt Q9H2J7 1-730) MPKNSKVVKRELDDDVTESVKDLLSNEDAADDAFKTSELIVDGQEEKDTDVEEGSEVEDERPAWNSKLQYILAQVGFSVGLGNVWRFPYLCQKNGGGAYLLPYLILLMVIGIPLFFLELSVGQRIRRGSIGVWNYISPKLGGIGFASCVVCYFVALYYNVIIGWSLFYFSQSFQQPLPWDQCPLVKNASHTFVEPECEQSSATTYYWYREALNISSSISESGGLNWKMTICLLAAWVMVCLAMIKGIQSSGKIIYFSSLFPYVVLICFLIRAFLLNGSIDGIRHMFTPKLEIMLEPKVWREAATQVFFALGLGFGGVIAFSSYNKRDNNCHFDAVLVSFINFFTSVLATLVVFAVLGFKANVINEKCITQNSETIMKFLKMGNISQDIIPHHINLSTVTAEDYHLVYDIIQKVKEEEFPALHLNSCKIEEELNKAVQGTGLAFIAFTEAMTHFPASPFWSVMFFLMLVNLGLGSMFGTIEGIVTPIVDTFKVRKEILTVICCLLAFCIGLIFVQRSGNYFVTMFDDYSATLPLLIVVILENIAVCFVYGIDKFMEDLKDMLGFAPSRYYYYMWKYISPLMLLSLLIASVVNMGLSPPGYNAWIEDKASEEFLSYPTWGLVVCVSLVVFAILPVPVVFIVRRFNLIDDSSGNLASVTYKRGRVLKEPVNLEGDDTSLIHGKIPSEMPSPNFGKNIYRKQSGSPTLDTAPNGRYGIGYLMADIMPDMPESDL | binds
Sodium-coupled neutral amino acid transporter 2 (protein, UniProt Q96QD8 1-506) MKKAEMGRFSISPDEDSSSYSSNSDFNYSYPTKQAALKSHYADVDPENQNFLLESNLGKKKYETEFHPGTTSFGMSVFNLSNAIVGSGILGLSYAMANTGIALFIILLTFVSIFSLYSVHLLLKTANEGGSLLYEQLGYKAFGLVGKLAASGSITMQNIGAMSSYLFIVKYELPLVIQALTNIEDKTGLWYLNGNYLVLLVSLVVILPLSLFRNLGYLGYTSGLSLLCMVFFLIVVICKKFQVPCPVEAALIINETINTTLTQPTALVPALSHNVTENDSCRPHYFIFNSQTVYAVPILIFSFVCHPAVLPIYEELKDRSRRRMMNVSKISFFAMFLMYLLAALFGYLTFYEHVESELLHTYSSILGTDILLLIVRLAVLMAVTLTVPVVIFPIRSSVTHLLCASKDFSWWRHSLITVSILAFTNLLVIFVPTIRDIFGFIGASAASMLIFILPSAFYIKLVKKEPMKSVQKIGALFFLLSGVLVMTGSMALIVLDWVHNAPGGGH | binds
Sodium-coupled neutral amino acid transporter 1 (protein, UniProt Q9H2H9 1-487) MMHFKSGLELTELQNMTVPEDDNISNDSNDFTEVENGQINSKFISDRESRRSLTNSHLEKKKCDEYIPGTTSLGMSVFNLSNAIMGSGILGLAFALANTGILLFLVLLTSVTLLSIYSINLLLICSKETGCMVYEKLGEQVFGTTGKFVIFGATSLQNTGAMLSYLFIVKNELPSAIKFLMGKEETFSAWYVDGRVLVVIVTFGIILPLCLLKNLGYLGYTSGFSLSCMVFFLIVVIYKKFQIPCIVPELNSTISANSTNADTCTPKYVTFNSKTVYALPTIAFAFVCHPSVLPIYSELKDRSQKKMQMVSNISFFAMFVMYFLTAIFGYLTFYDNVQSDLLHKYQSKDDILILTVRLAVIVAVILTVPVLFFTVRSSLFELAKKTKFNLCRHTVVTCILLVVINLLVIFIPSMKDIFGVVGVTSANMLIFILPSSLYLKITDQDGDKGTQRIWAALFLGLGVLFSLVSIPLVIYDWACSSSSDEGH | binds
Carboxypeptidase D (enzyme, UniProt O75976 32-1380) AHIKKAEATTTTTSAGAEAAEGQFDRYYHEEELESALREAAAAGLPGLARLFSIGRSVEGRPLWVLRLTAGLGSLIPEGDAGPDAAGPDAAGPLLPGRPQVKLVGNMHGDETVSRQVLIYLARELAAGYRRGDPRLVRLLNTTDVYLLPSLNPDGFERAREGDCGFGDGGPSGASGRDNSRGRDLNRSFPDQFSTGEPPALDEVPEVRALIEWIRRNKFVLSGNLHGGSVVASYPFDDSPEHKATGIYSKTSDDEVFKYLAKAYASNHPIMKTGEPHCPGDEDETFKDGITNGAHWYDVEGGMQDYNYVWANCFEITLELSCCKYPPASQLRQEWENNRESLITLIEKVHIGVKGFVKDSITGSGLENATISVAGINHNITTGRFGDFYRLLVPGTYNLTVVLTGYMPLTVTNVVVKEGPATEVDFSLRPTVTSVIPDTTEAVSTASTVAIPNILSGTSSSYQPIQPKDFHHHHFPDMEIFLRRFANEYPNITRLYSLGKSVESRELYVMEISDNPGVHEPGEPEFKYIGNMHGNEVVGRELLLNLIEYLCKNFGTDPEVTDLVHNTRIHLMPSMNPDGYEKSQEGDSISVIGRNNSNNFDLNRNFPDQFVQITDPTQPETIAVMSWMKSYPFVLSANLHGGSLVVNYPFDDDEQGLATYSKSPDDAVFQQIALSYSKENSQMFQGRPCKNMYPNEYFPHGITNGASWYNVPGGMQDWNYLQTNCFEVTIELGCVKYPLEKELPNFWEQNRRSLIQFMKQVHQGVRGFVLDATDGRGILNATISVAEINHPVTTYKTGDYWRLLVPGTYKITASARGYNPVTKNVTVKSEGAIQVNFTLVRSSTDSNNESKKGKGASSSTNDASDPTTKEFETLIKDLSAENGLESLMLRSSSNLALALYRYHSYKDLSEFLRGLVMNYPHITNLTNLGQSTEYRHIWSLEISNKPNVSEPEEPKIRFVAGIHGNAPVGTELLLALAEFLCLNYKKNPAVTQLVDRTRIVIVPSLNPDGRERAQEKDCTSKIGQTNARGKDLDTDFTNNASQPETKAIIENLIQKQDFSLSVALDGGSMLVTYPYDKPVQTVENKETLKHLASLYANNHPSMHMGQPSCPNKSDENIPGGVMRGAEWHSHLGSMKDYSVTYGHCPEITVYTSCCYFPSAARLPSLWADNKRSLLSMLVEVHKGVHGFVKDKTGKPISKAVIVLNEGIKVQTKEGGYFHVLLAPGVHNIIAIADGYQQQHSQVFVHHDAASSVVIVFDTDNRIFGLPRELVVTVSGATMSALILTACIIWCICSIKSNRHKDGFHRLRQHHDEYEDEIRMMSTGSKKSLLSHEFQDETDTEEETLYSSKH | binds
Golgin subfamily A member 5 (protein, UniProt Q8TBA6 1-731) MSWFVDLAGKAEDLLNRVDQGAATALSRKDNASNIYSKNTDYTELHQQNTDLIYQTGPKSTYISSAADNIRNQKATILAGTANVKVGSRTPVEASHPVENASVPRPSSHFVRRKKSEPDDELLFDFLNSSQKEPTGRVEIRKEKGKTPVFQSSQTSSVSSVNPSVTTIKTIEENSFGSQTHEAASNSDSSHEGQEESSKENVSSNAACPDHTPTPNDDGKSHELSNLRLENQLLRNEVQSLNQEMASLLQRSKETQEELNKARARVEKWNADHSKSDRMTRGLRAQVDDLTEAVAAKDSQLAVLKVRLQEADQLLSTRTEALEALQSEKSRIMQDQSEGNSLQNQALQTFQERLHEADATLKREQESYKQMQSEFAARLNKVEMERQNLAEAITLAERKYSDEKKRVDELQQQVKLYKLNLESSKQELIDYKQKATRILQSKEKLINSLKEGSGFEGLDSSTASSMELEELRHEKEMQREEIQKLMGQIHQLRSELQDMEAQQVNEAESAREQLQDLHDQIAGQKASKQELETELERLKQEFHYIEEDLYRTKNTLQSRIKDRDEEIQKLRNQLTNKTLSNSSQSELENRLHQLTETLIQKQTMLESLSTEKNSLVFQLERLEQQMNSASGSSSNGSSINMSGIDNGEGTRLRNVPVLFNDTETNLAGMYGKVRKAASSIDQFSIRLGIFLRRYPIARVFVIIYMALLHLWVMIVLLTYTPEMHHDQPYGK | binds
Rab11 family-interacting protein 5 (protein, UniProt Q9BXF6 1-653) MALVRGAEPAAGPSRWLPTHVQVTVLRARGLRGKSSGAGSTSDAYTVIQVGREKYSTSVVEKTHGCPEWREECSFELPPGALDGLLRAQEADAGPAPWAASSAAACELVLTTMHRSLIGVDKFLGQATVALDEVFGAGRAQHTQWYKLHSKPGKKEKERGEIEVTIQFTRNNLSASMFDLSMKDKPRSPFSKIRDKMKGKKKYDLESASAILPSSAIEDPDLGSLGKMGKAKGFFLRNKLRKSSLTQSNTSLGSDSTLSSASGSLAYQGPGAELLTRSPSRSSWLSTEGGRDSAQSPKLFTHKRTYSDEANQMRVAPPRALLDLQGHLDAASRSSLCVNGSHIYNEEPQGPVRHRSSISGSLPSSGSLQAVSSRFSEEGPRSTDDTWPRGSRSNSSSEAVLGQEELSAQAKVLAPGASHPGEEEGARLPEGKPVQVATPIVASSEAVAEKEGARKEERKPRMGLFHHHHQGLSRSELGRRSSLGEKGGPILGASPHHSSSGEEKAKSSWFGLREAKDPTQKPSPHPVKPLSAAPVEGSPDRKQSRSSLSIALSSGLEKLKTVTSGSIQPVTQAPQAGQMVDTKRLKDSAVLDQSAKYYHLTHDELISLLLQRERELSQRDEHVQELESYIDRLLVRIMETSPTLLQIPPGPPK | binds
